{"source": "PubChem BioAssay AID180", "about": "(DTP/NCI, 2004)", "system": "BDF1 mice, Adenocarcinoma 755 s.c., tumor weight T/C", "assay": "NCI In Vivo Anticancer Drug Screen. Data for tumor model Adenocarcinoma 755 (subcutaneous) in B6D2F1 (BDF1) mice", "settings": "T/C endpoint: mean tumor weight, higher T/C = larger tumour; for T/C: evaluated on day 12", "summary_of_the_method": "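In vivo antitumor screen on a transplantable tumor line. Result equals the measure in compound-treated animals divided by the same measure in vehicle controls.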", "key": {"[1]": {"settings": "dose: 25.75 mg/kg/injection, schedule: Q01DX011 (sc), vehicle: steroid suspending solution"}, "[2]": {"settings": "dose: 51.5 mg/kg/injection, schedule: Q01DX011 (sc), vehicle: steroid suspending solution"}, "[3]": {"settings": "dose: 500.0 mg/kg/injection, schedule: Q01DX011 (ip), vehicle: carboxymethylcellulose (CMC)"}}, "note": "The list is a part of this screen's results and no random one: it is rich in T/C values a quarter to a half above the control, in often repeated tests (any T/C) and in doses without a T/C. Further doses and runs are listed elsewhere. T/C gives the treated animals as a percentage of the vehicle group. Schedule codes are those of the source, read here as Q, the interval in days (D) or hours (H), X, the number of doses. Some T/C values carry the count of animals alive at the toxicity check (mostly the fifth day); without a count, all were alive then. Some doses were run more than once; the values are given in rising order. Some doses have a count of surviving animals in place of a T/C: the source files T/C as zero there, which appears to mark a toxic dose or a test without result, not a measured value. Counts of survivors are from the toxicity check (mostly the fifth day) where no day follows; animals may have died later."}
{"smiles": "CC(=O)OCC(=O)[C@@]1(O)CC[C@H]2[C@@H]3CCC4=CC(=O)C=C[C@]4(C)[C@H]3[C@@H](O)C[C@@]21C", "values": [{"measurement": "survivor count", "setting": "dose: 80.0 mg/kg/injection, schedule: Q01DX011 (sc), vehicle: steroid suspending solution", "value": "6 of 10"}, {"measurement": "survivor count", "setting": "dose: 101.0 mg/kg/injection, schedule: Q01DX011 (sc), vehicle: steroid suspending solution", "value": "6 of 10"}]}
{"smiles": "O=C(O)c1ccc(-c2ccccc2)cc1", "values": [{"measurement": "survivor count", "setting": "dose: 400.0 mg/kg/injection, schedule: Q01DX011 (ip), vehicle: carboxymethylcellulose (CMC)", "value": "0 of 10"}, {"measurement": "survivor count", "setting": "dose: 800.0 mg/kg/injection, schedule: Q01DX011 (ip), vehicle: carboxymethylcellulose (CMC)", "value": "0 of 10"}]}
{"smiles": "O=C1NC(=O)c2cc([N+](=O)[O-])cc3cccc1c23", "values": [{"measurement": "survivor count", "setting": "dose: 85.0 mg/kg/injection, schedule: Q01DX011 (ip), vehicle: methylcellulose (MC)", "value": "4 of 10"}, {"measurement": "survivor count", "setting": "dose: 680.0 mg/kg/injection, schedule: Q01DX011 (ip), vehicle: methylcellulose (MC)", "value": "1 of 10"}]}
{"smiles": "N#CCCn1cnc2c(Cl)ncnc21", "values": [{"measurement": "T/C", "setting": "dose: 25.0 mg/kg/injection, schedule: Q01DX011 (ip), vehicle: other", "value": "148 % of control"}]}
{"smiles": "NNC(=O)c1ccncc1", "values": [{"measurement": "T/C", "setting": "dose: 35.25 mg/kg/injection, schedule: Q01DX011 (ip), vehicle: carboxymethylcellulose (CMC)", "value": "140 % of control"}, {"measurement": "survivor count", "setting": "dose: 154.0 mg/kg/injection, schedule: Q01DX011 (ip), vehicle: carboxymethylcellulose (CMC)", "value": "6 of 10"}]}
{"smiles": "CN(C)[C@@H]1C(=O)C(C(=O)NCN(CCCl)CCCl)=C(O)[C@@]2(O)C(=O)C3=C(O)c4c(O)cccc4[C@@](C)(O)[C@H]3C[C@@H]12", "values": [{"measurement": "T/C", "setting": "dose: 1.0 mg/kg/injection, schedule: Q01DX011 (ip), vehicle: methylcellulose (MC)", "value": "134 % of control"}, {"measurement": "T/C", "setting": "dose: 2.5 mg/kg/injection, schedule: Q01DX011 (ip), vehicle: methylcellulose (MC)", "value": "125 % of control"}, {"measurement": "survivor count", "setting": "dose: 40.0 mg/kg/injection, schedule: Q01DX011 (ip), vehicle: methylcellulose (MC)", "value": "5 of 10"}, {"measurement": "survivor count", "setting": "dose: 60.0 mg/kg/injection, schedule: Q01DX011 (ip), vehicle: saline", "value": "5 of 10"}, {"measurement": "survivor count", "setting": "dose: 80.0 mg/kg/injection, schedule: Q01DX011 (ip), vehicle: methylcellulose (MC)", "value": "0 of 10"}]}
{"smiles": "OCCOCCN1CCN(CCCN2c3ccccc3Sc3ccc(C(F)(F)F)cc32)CC1", "values": [{"measurement": "survivor count", "setting": "dose: 5.0 mg/kg/injection, schedule: Q01DX011 (ip), vehicle: saline", "value": "2 of 10"}, {"measurement": "survivor count", "setting": "dose: 10.0 mg/kg/injection, schedule: Q01DX011 (ip), vehicle: saline", "value": "1 of 10"}, {"measurement": "survivor count", "setting": "dose: 40.0 mg/kg/injection, schedule: Q01DX011 (ip), vehicle: saline", "value": "4 of 10"}]}
{"smiles": "O=C(O)C1CCCN1c1ncnc2nc[nH]c12", "note": "(centres undefined)", "values": [{"measurement": "T/C", "setting": "dose: 225.0 mg/kg/injection, schedule: Q01DX011 (ip), vehicle: saline", "value": "142 % of control"}]}
{"smiles": "Clc1ccccc1CSc1ncnc2nc[nH]c12", "values": [{"measurement": "survivor count", "setting": "dose: 500.0 mg/kg/injection, schedule: Q01DX011 (ip), vehicle: other", "value": "0 of 10"}]}
{"smiles": "O=S(=O)(F)c1ncnc2nc[nH]c12", "values": [{"measurement": "survivor count", "setting": "dose: 50.0 mg/kg/injection, schedule: Q01DX011 (ip), vehicle: methylcellulose (MC)", "value": "6 of 10"}]}
{"smiles": "Nc1nc(SCc2ccc([N+](=O)[O-])cc2)c2ncn(C3OC(CO)C(O)C3O)c2n1", "note": "(centres undefined)", "values": [{"measurement": "survivor count", "setting": "dose: 150.0 mg/kg/injection, schedule: Q01DX011 (ip), vehicle: methylcellulose (MC)", "value": "3 of 10"}]}
{"smiles": "Cc1ccc(CSc2ncnc3nc[nH]c23)cc1C", "values": [{"measurement": "survivor count", "setting": "dose: 75.0 mg/kg/injection, schedule: Q01DX011 (ip), vehicle: methylcellulose (MC)", "value": "6 of 10"}]}
{"smiles": "N#[N+]c1cnc([O-])[nH]c1=O", "values": [{"measurement": "survivor count", "setting": "dose: 10.0 mg/kg/injection, schedule: Q01DX011 (ip), vehicle: carboxymethylcellulose (CMC)", "value": "1 of 10"}, {"measurement": "survivor count", "setting": "dose: 11.8 mg/kg/injection, schedule: Q01DX011 (ip), vehicle: carboxymethylcellulose (CMC)", "value": "1 of 10"}, {"measurement": "survivor count", "setting": "dose: 1463.0 micrograms/kg/injection, schedule: Q01DX011 (ip), vehicle: carboxymethylcellulose (CMC)", "value": "6 of 10"}, {"measurement": "T/C", "setting": "dose: 5850.0 micrograms/kg/injection, schedule: Q01DX011 (ip), vehicle: carboxymethylcellulose (CMC)", "value": "128 % of control [9 of 10 alive]"}]}
{"smiles": "NC(CS)C(=O)O", "note": "(centres undefined) (tested in a mixture with another compound)", "values": [{"measurement": "survivor count", "setting": "dose: 500.0 mg/kg/injection, schedule: Q01DX011 (ip), vehicle: saline", "value": "2 of 10"}, {"measurement": "survivor count", "setting": "dose: 520.0 mg/kg/injection, schedule: Q01DX011 (ip), vehicle: saline", "value": "4 of 10"}]}
{"smiles": "CC/C(=C(/CC)c1ccc(O)cc1)c1ccc(O)cc1", "values": [{"measurement": "T/C", "setting": "dose: 12.87 mg/kg/injection, schedule: Q01DX011 (sc), vehicle: steroid suspending solution", "value": "47 [7 of 10 alive], 61 [8 of 10 alive], 71 [8 of 10 alive], 72, 76 % of control"}, {"measurement": "survivor count", "setting": "dose: 25.73 mg/kg/injection, schedule: Q01DX011 (sc), vehicle: steroid suspending solution", "value": "3 of 10"}, {"measurement": "T/C", "setting": "[1]", "value": "55, 59, 74 % of control [7 of 10 alive]"}, {"measurement": "survivor count", "setting": "[1]", "value": "4 of 10"}, {"measurement": "T/C", "setting": "[2]", "value": "40 [7 of 10 alive], 46, 52, 90 % of control [9 of 10 alive]"}, {"measurement": "survivor count", "setting": "[2]", "value": "2 of 10"}, {"measurement": "survivor count", "setting": "dose: 400.0 mg/kg/injection, schedule: Q01DX011 (sc), vehicle: steroid suspending solution", "value": "1 of 10"}, {"measurement": "survivor count", "setting": "dose: 500.0 mg/kg/injection, schedule: Q01DX011 (sc), vehicle: steroid suspending solution", "value": "5 of 10"}]}
{"smiles": "O=C(NC(CO)C(=O)O)C(Cl)Cl", "note": "(centres undefined)", "values": [{"measurement": "survivor count", "setting": "dose: 2000.0 mg/kg/injection, schedule: Q01DX011 (ip), vehicle: methylcellulose (MC)", "value": "4 of 10"}, {"measurement": "survivor count", "setting": "dose: 3000.0 mg/kg/injection, schedule: Q01DX011 (ip), vehicle: methylcellulose (MC)", "value": "3 of 10"}]}
{"smiles": "CN1C=NNc2ncnc(Cl)c21", "values": [{"measurement": "survivor count", "setting": "[3]", "value": "0 of 10"}]}
{"smiles": "CN(C)/N=N/c1nc[nH]c1C(N)=O", "values": [{"measurement": "survivor count", "setting": "dose: 200.0 mg/kg/injection, schedule: Q01DX011 (ip), vehicle: methylcellulose (MC)", "value": "6 of 10"}, {"measurement": "survivor count", "setting": "dose: 250.0 mg/kg/injection, schedule: Q01DX011 (ip), vehicle: carboxymethylcellulose (CMC)", "value": "2 of 10"}, {"measurement": "survivor count", "setting": "dose: 300.0 mg/kg/injection, schedule: Q01DX011 (ip), vehicle: saline", "value": "4 of 10"}, {"measurement": "survivor count", "setting": "dose: 320.0 mg/kg/injection, schedule: Q01DX011 (ip), vehicle: carboxymethylcellulose (CMC)", "value": "1 of 10"}, {"measurement": "survivor count", "setting": "dose: 640.0 mg/kg/injection, schedule: Q01DX011 (ip), vehicle: carboxymethylcellulose (CMC)", "value": "0 of 10"}]}
{"smiles": "COC1C(OC(N)=O)C(O)C(Oc2ccc3c(O)c(NC(=O)c4ccc(O)c(CC=C(C)C)c4)c(=O)oc3c2C)OC1(C)C", "note": "(centres undefined)", "values": [{"measurement": "survivor count", "setting": "dose: 400.0 mg/kg/injection, schedule: Q01DX011 (ip), vehicle: saline", "value": "0 of 10"}]}
{"smiles": "CNc1nc(N)nc(Nc2ccc(I)cc2)c1N=O", "values": [{"measurement": "T/C", "setting": "dose: 200.0 mg/kg/injection, schedule: Q01DX011 (ip), vehicle: carboxymethylcellulose (CMC)", "value": "129 % of control [9 of 10 alive]"}, {"measurement": "survivor count", "setting": "[3]", "value": "1 of 10"}]}
{"smiles": "Cn1c(=O)c2[nH]c(N/N=C/c3ccccc3)nc2n(C)c1=O", "values": [{"measurement": "survivor count", "setting": "dose: 240.0 mg/kg/injection, schedule: Q01DX011 (ip), vehicle: methylcellulose (MC)", "value": "6 of 10"}]}
{"smiles": "Cn1c(=O)c2c(nc(N/N=C/c3cccc(Br)c3)n2C)n(C)c1=O", "values": [{"measurement": "T/C", "setting": "dose: 240.0 mg/kg/injection, schedule: Q01DX011 (ip), vehicle: carboxymethylcellulose (CMC)", "value": "136 % of control [7 of 10 alive]"}]}
